These are literature values, as cited in patent publication US20050034189A1, “Chitin oligosaccharide elicitor- and gibberellin-responsive genes in plants, and uses thereof” (National Institute of Agrobiological Sciences, priority 2001, published 2005).

Molecules are shown by their SMILES.

The series has as its system α-amylase. The conditions noted are these: cited from earlier work.

In the case of `CN[C@@H]1C[C@H]2O[C@@](C)([C@@H]1OC)n1c3ccccc3c3c4c(c5c6ccccc6n2c5c31)C(=O)NC4` [staurosporine], the “inhibition of gibberellin induction of α-amylase” value was “hardly inhibited”.
